Data from PubChem BioAssay AID493014 (National Center for Advancing Translational Sciences (NCATS), 2011).
The other results are listed elsewhere or left out. Shown are side measurements of this screen, not its main read-out; they come without a call. Most of these compounds were active or inconclusive in the main read-out, so they are no random draw. Potencies come from curve fits of mixed quality, noted in brackets.

Test: qHTS Assay to Find Inhibitors of Chronic Active B-Cell Receptor Signaling
Details: ABC-DLBCL IkBa-CBG/CBR reporter, luminescence ratio (green luciferase fused to IkBa over red control in TMD8 lymphoma cells), 4 h
Summary of the method: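 Compounds up to 46 uM were incubated four hours with TMD8 cells whose green CBG68 luciferase is fused to IkappaBalpha; red CBR luminescence normalised the signal, and concentration-effect curves were fitted to fusion, red and ratio data.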

[1] = measured here: CBR red luminescence, cell number
[2] = measured here: IkBa-CBG green luminescence

In the case of `Cn1c(/C=C/c2ccc(Br)cc2)nc2ccccc2c1=O`, the AC50 [1] is reported as 0.0891 µM [rising, full curve, poor fit].
For `COCCN(C(=O)COC(=O)/C=C/c1ccc2ccccc2n1)c1c(N)n(Cc2ccccc2)c(=O)[nH]c1=O`, the AC50 [1] was 7.08 µM [falling, full curve].
With `CCc1ccc(C2CC(=O)NC(SCC(=O)OC(C)C)=C2C#N)cc1` (configuration not stated) the AC50 [1] was 6.51 µM [rising, single point].
With `Cc1ccccc1CSc1nc(-c2ccccc2)cc(=O)[nH]1` the AC50 [1] was 2.91 µM [rising, partial curve].
For `O=C(Nc1cccnc1N1CCOCC1)c1cccs1`, the AC50 [1] was 31.6 µM [rising, single point].
For `COc1ccc(/C=N/NC(=O)c2cc(Br)ccc2O)cc1Cn1cc(Cl)cn1`, the AC50 [1] was 1.3 µM [falling, partial curve].
For `O=C(Nc1nnc(S(=O)(=O)N2CCCC2)s1)c1cccc([N+](=O)[O-])c1`, the AC50 [1] was 15.8 µM [rising, partial curve, poor fit].
In the case of `O=C(Nc1ccc(Br)cc1)c1cnc[nH]1`, the AC50 [1] is reported as 35.5 µM [falling, single point].
In the case of `O=[N+]([O-])c1cc(Br)c2nsnc2c1N1CCOCC1`, the AC50 [1] is reported as 17.8 µM [rising, single point].
In the case of `O=C1C(Cc2cccc([N+](=O)[O-])c2)S/C(=N/N=C/c2ccco2)N1c1ccccc1` (configuration not stated), the AC50 [1] is reported as 0.58 µM [rising, full curve].
For `COc1ccc(Oc2ccccc2C=O)cc1`, the AC50 [1] was 17.8 µM [rising, partial curve] and the AC50 [2] was 17.8 µM [falling, single point].
In the case of `CC(/C=C/c1ccc(O)cc1)=N/O`, the AC50 [1] is reported as 4.11 µM [falling, full curve, poor fit].
With `CCN1/C(=C/C=C/C=C/c2sc3ccccc3[n+]2CC)Sc2ccccc21` the AC50 [1] was 35.5 µM [falling, single point].
In the case of `CC1CCc2[nH]c3ccc(C(=O)Nc4ccc(C(=O)N(C)C)cc4)cc3c2C1` (configuration not stated), the AC50 [1] is reported as 3.16 µM [rising, partial curve, poor fit].
For `Cc1ccccc1NC(=S)Nc1ccc2cn[nH]c2c1`, the AC50 [1] was 8.91 µM [falling, partial curve].
In the case of `COc1ccc(NC(=O)Nc2nc3ccccc3s2)cc1`, the AC50 [1] is reported as 10 µM [falling, single point].
For `Cc1c(Cl)cccc1NC(=O)CSc1nc2ncc(Cl)cc2[nH]1`, the AC50 [1] was 2.82 µM [falling, single point].
For `CCc1ccc(-c2nc(CN3CCC(C(=O)NCCc4ccc(OC)c(OC)c4)CC3)c(C)o2)cc1`, the AC50 [1] was 1.12 µM [rising, full curve].
For `NNC(=O)c1ccc(Cn2cccn2)o1`, the AC50 [1] was 0.562 µM [falling, full curve].
With `Cc1ccc(CN2CCCCC2C(=O)Nc2ccc(Oc3cccnc3)cc2)o1` (configuration not stated) the AC50 [1] was 31.6 µM [rising, single point] and the AC50 [2] was 28.2 µM [falling, single point].
In the case of `Cn1c(CNC(=O)c2ccc(F)cc2)nc2ccccc21`, the AC50 [1] is reported as 23.1 µM [falling, single point].
In the case of `CCc1nc2ccccc2n1Cc1ccc(OC)c(OC)c1`, the AC50 [1] is reported as 2.59 µM [rising, full curve, poor fit].
In the case of `N/C(Cc1ccc(Cl)cc1)=N\OC(=O)C1CCCCC1`, the AC50 [1] is reported as 2.31 µM [rising, full curve].
In the case of `CCOC(=O)c1nnn(CC(=O)Nc2cc(Cl)ccc2C)c1C(=O)OCC`, the AC50 [1] is reported as 7.31 µM [rising, partial curve].
In the case of `COc1ccc(OC)c(Nc2nc(N)nc(-c3cc4ccccc4o3)n2)c1`, the AC50 [1] is reported as 0.231 µM [falling, full curve, poor fit].
With `CCN1CCSc2ccc(C(=O)NCc3ccccc3F)cc21` the AC50 [1] was 0.112 µM [falling, full curve, poor fit].
For `CC(=O)NN1C(=O)/C(=C/c2ccc(C(C)C)cc2)SC1=S`, the AC50 [1] was 20.6 µM [rising, partial curve, poor fit].
With `CC1=C(C)CC(C(=O)c2ccc(C)cc2)C(C(=O)O)C1` (configuration not stated) the AC50 [1] was 2.91 µM [rising, single point].
For `O=C(c1ccc(N2CCN(C(=O)c3ccccc3)CC2)cc1)c1cccc(F)c1`, the AC50 [1] was 17.8 µM [rising, partial curve, poor fit].
In the case of `Cc1ccc(/C=C/C(=O)NCCc2ccccc2)o1`, the AC50 [1] is reported as 11.2 µM [falling, partial curve].
In the case of `CCCCCCCNC(=O)C1(CC2CC(c3ccc(Cl)cc3)=NO2)CCN(C(=O)CCCCCBr)CC1` (configuration not stated), the AC50 [1] is reported as 35.5 µM [falling, single point].
In the case of `Cc1cc(OCCCC(=O)N2CCCCC2)cc(C)c1Cl`, the AC50 [1] is reported as 2.91 µM [rising, single point].
In the case of `C(=N\Nc1nc(N2CCCCCC2)nc(N2CCCCCC2)n1)/c1ccccc1`, the AC50 [1] is reported as 35.5 µM [rising, single point].
With `COc1ccc(N2CCN(C(=O)CN(C)S(=O)(=O)c3cc(C)ccc3OC)CC2)cc1` the AC50 [1] was 17.8 µM [rising, single point].
In the case of `Cc1cccc(NC(=O)Cn2c(O)c(N=NC(=O)c3ccncc3)c3ccccc32)c1`, the AC50 [1] is reported as 2.51 µM [rising, full curve, poor fit].
In the case of `CCOC(=O)C1CCN(c2cc(=O)n(-c3ccccc3Cl)c(=O)[nH]2)CC1`, the AC50 [1] is reported as 20.6 µM [falling, single point].
In the case of `COc1ccc(S(=O)(=O)NCCc2cn3nc(C)c(C)nc3n2)cc1`, the AC50 [1] is reported as 3.55 µM [falling, partial curve, poor fit].
For `Cc1cccc(NC(=O)Nc2ccccc2)n1`, the AC50 [1] was 17.8 µM [falling, single point].
In the case of `Cc1sc2nc(-c3cccs3)oc(=O)c2c1C`, the AC50 [1] is reported as 12.6 µM [falling, partial curve, poor fit].
With `CC(=O)Nc1cccc(/C(C)=N/NC(=O)c2cccs2)c1` the AC50 [1] was 20.6 µM [falling, single point].
In the case of `CCCN(C(=O)CSc1n[nH]c(-c2ccc(OC)cc2)n1)c1c(N)n(Cc2ccccc2)c(=O)[nH]c1=O`, the AC50 [1] is reported as 7.31 µM [rising, partial curve, poor fit].
In the case of `COC(=O)Cc1[nH]n(-c2ccccc2)c(=O)c1C=Nc1ccc(C)cc1`, the AC50 [1] is reported as 0.447 µM [rising, partial curve, poor fit].
For `O=C1/C(=C/c2cccc(Cl)c2)SC(=S)N1CCC(=O)N1CCCCC1CCO` (configuration not stated), the AC50 [1] was 10 µM [falling, partial curve].
With `Cc1ccc(-c2csc3ncnc(SCc4ccc(C(=O)O)cc4)c23)cc1` the AC50 [1] was 28.2 µM [rising, single point].
With `Cc1cc(N2CC(C(=O)NCc3cccs3)CC2=O)ccc1C(C)C` (configuration not stated) the AC50 [1] was 3.26 µM [rising, partial curve, poor fit].
With `FC(F)(F)c1cccc(-c2nc3nc(Cl)c(Cl)nc3[nH]2)c1` the AC50 [1] was 1.58 µM [falling, full curve].
In the case of `CC(=O)CSc1nc(C(F)(F)F)cc(=O)n1-c1ccccc1`, the AC50 [1] is reported as 20.6 µM [rising, single point].
For `COc1ccc2nc(N3C(=O)C(O)=C(C(=O)c4ccco4)C3c3ccccc3OC)sc2c1` (configuration not stated), the AC50 [1] was 3.98 µM [falling, full curve, poor fit].
In the case of `COc1ccccc1-n1c(=O)c(C#N)c(-c2ccc([N+](=O)[O-])cc2)c2cc(C(=O)c3cc(F)ccc3O)cnc21`, the AC50 [1] is reported as 2.82 µM [falling, full curve].
With `CCCc1cc(=O)oc2cc(Oc3ncccn3)ccc12` the AC50 [1] was 1.3 µM [falling, full curve, poor fit].
In the case of `COc1ccc(CN(C(=O)c2ccco2)c2ccc(C)cc2)cc1OC`, the AC50 [1] is reported as 15.8 µM [falling, partial curve, poor fit].
In the case of `COc1ccc(S(=O)(=O)N2CCCCC2)cc1NS(=O)(=O)c1ccccc1`, the AC50 [1] is reported as 7.31 µM [rising, partial curve, poor fit].
For `Clc1ccc2nc(-c3ccc(Br)s3)cn2c1`, the AC50 [1] was 16.4 µM [falling, single point].
With `CCOc1ccc(N(CC(=O)Nc2cccc(Br)c2)S(C)(=O)=O)cc1` the AC50 [1] was 28.2 µM [falling, single point].
For `C=CCc1c(C)nc2cc(-c3ccc(C)cc3)[nH]n2c1=O`, the AC50 [1] was 10 µM [falling, single point].
With `O=C(NCc1ccc2c(c1)OCO2)c1ccc(COc2cccc(Cl)c2)o1` the AC50 [1] was 10.3 µM [falling, partial curve].
In the case of `Cc1ccccc1-n1nc(C(=O)O)cc1-c1ccccc1`, the AC50 [1] is reported as 4.11 µM [rising, single point].
For `Cc1ccc(SCc2cn3c(C)csc3n2)cc1`, the AC50 [1] was 2.06 µM [rising, partial curve, poor fit].
For `O=C(CN1CCN(S(=O)(=O)c2ccc(F)cc2)CC1)Nc1ccc(F)cc1F`, the AC50 [1] was 11.2 µM [falling, partial curve].
For `C[C@@H]1CCCCCCCCC(=O)OCCN(C(=O)OC(C)(C)C)[C@H](C)CCCCCCCCC(=O)OCCN(C(=O)OC(C)(C)C)[C@H](C)CCCCCCCCC(=O)OCCN(C(=O)OC(C)(C)C)[C@H](C)CCCCCCCCC(=O)OCCN1C(=O)OC(C)(C)C`, the AC50 [1] was 23.1 µM [rising, partial curve, poor fit].
For `COC(=O)Cc1cn(-c2ncc(C(F)(F)F)cc2Cl)c2ccccc12`, the AC50 [1] was 29.1 µM [rising, partial curve, poor fit].
For `Cc1ccc(CN=C(N)Nc2nc(C)cc(C)n2)cc1`, the AC50 [1] was 10 µM [falling, partial curve, poor fit].
With `CCCCNC(=O)c1cc2ccccc2s1` the AC50 [1] was 15.8 µM [falling, single point].
With `CCn1c2ccccc2c2cc(NC(=O)c3cc(OC)c(OC)c(OC)c3)ccc21` the AC50 [1] was 0.501 µM [rising, full curve] and the AC50 [2] was 0.501 µM [falling, full curve].
